Where “and” joins values, the source holds several entries; their conditions need not be identical. Equal values may be shown once. Some of the results follow. Most values come without repeats; read them as rough.
What was measured:
[1] = tested on: MEPP (mouse ovarian epithelium Trp53/Pten KO); experiment: cell viability relative to untreated (fraction); higher = less growth inhibition; conditions: 5 µM; 3 days
[2] = tested on: PREPP (mouse prostate epithelium Trp53/Pten KO); experiment: as above; conditions: 5 µM; 3 days

SMILES	cell viability [1]	cell viability [2]
Oc1cccc(O)c1	1.58	0.941
CCCNC[C@]1(O)[C@H](C)O[C@@H](O[C@H]2[C@H](C)[C@@H](O[C@@H]3O[C@H](C)C[C@H](N(C)C)[C@H]3O)[C@](C)(O)C[C@@H](C)CN[C@H](C)[C@@H](O)[C@](C)(O)[C@@H](CC)OC(=O)[C@@H]2C)C[C@@]1(C)OC	1.06	0.762
CCc1ccc(CCOc2ccc(CC3SC(=O)NC3=O)cc2)nc1 (centres undefined)	1.05	0.852
O=C(O)C(O)c1ccccc1 (centres undefined)	1.15	0.485
O=C(O)CC(O)(CC(=O)O)C(=O)O	1.15	1.11
O=C(O)Cc1ccc(O)c(O)c1	0.893	0.907
O=C1NCC2(CCN(CCc3ccccc3)CC2)O1	1.4	0.95
C[N+](C)(C)CC(=O)O	1.15 and 1.14	1.04 and 1.06
COc1ccc(-c2cc(=O)c3c(OC)c(OC)c(OC)c(OC)c3o2)cc1OC	1.35	0.798
C=CC(C)(C)c1cc(/C=C/C(=O)c2ccc(O)cc2)c(OC)cc1O	1.13	1
O=C(O)CCCCCCCC(=O)O	0.958	0.947
CCCCCC/C=C\CCCCCCCC(=O)O	1.04	0.911
C=C1C(=O)O[C@@H]2/C=C(\C)CC/C=C(\C)CC[C@@H]12	1.24	0.875
O=C1C=C2C=C[C@@H](O)[C@H](O)[C@H]2O1	1.07	0.996
CCCCCCCCCCCCC(=O)O	1.1	0.878
CNCC(=O)O	0.813	0.849
C[C@@H]1C/C=C/C=C/C=C/C=C/[C@H](O[C@@H]2O[C@H](C)[C@@H](O)[C@H](N)[C@@H]2O)C[C@@H]2O[C@](O)(C[C@@H](O)C[C@H]3O[C@@H]3/C=C/C(=O)O1)C[C@H](O)[C@H]2C(=O)O	1.03	0.933
CO/N=C(\C(=O)N[C@@H]1C(=O)N2C(C(=O)OC(C)OC(C)=O)=C(COC(N)=O)CS[C@H]12)c1ccco1 (some centres undefined)	1.16	1.04
CC1(C)S[C@@H]2[C@H](NC(=O)[C@H](NC(=O)N3CCNC3=O)c3ccccc3)C(=O)N2[C@H]1C(=O)O	1.13	0.997
O=C1C[C@@H]2[C@@H](CO)[C@H](O)C[C@@H]2O1	0.912	0.914
Cc1c(C)c2c(c(C)c1O)CCC(C)(CCCC(C)CCCC(C)CCCC(C)C)O2 (centres undefined)	0.884	0.931
COc1cccc(OC)c1C(=O)O	1.11	0.928
CC1=C(/C=C/C(C)=C/C=C/C(C)=C/C(=O)Nc2ccc(O)cc2)C(C)(C)CCC1	1.01	0.814
CCN[C@@H]1C[C@H](N)[C@@H](O[C@H]2OC(CN)=CC[C@H]2N)[C@H](O)[C@H]1O[C@H]1OC[C@](C)(O)[C@H](NC)[C@H]1O	1.35	0.919
CCCCCCCCCCC(=O)O	0.967	0.98
C[C@@H](O)[C@H]1C(=O)N2C(C(=O)O)=C(S[C@@H]3CN[C@H](CNS(N)(=O)=O)C3)[C@H](C)[C@H]12	1.12 and 1.01	0.933 and 0.912

13 of these compounds, reformatted.
SMILES | cell viability [1] | cell viability [2]
O=C(O)Cc1ccc(O)c(O)c1 | 0.893 | 0.907
O=C1NCC2(CCN(CCc3ccccc3)CC2)O1 | 1.4 | 0.95
C[N+](C)(C)CC(=O)O | 1.15 and 1.14 | 1.04 and 1.06
COc1ccc(-c2cc(=O)c3c(OC)c(OC)c(OC)c(OC)c3o2)cc1OC | 1.35 | 0.798
C=CC(C)(C)c1cc(/C=C/C(=O)c2ccc(O)cc2)c(OC)cc1O | 1.13 | 1
O=C(O)CCCCCCCC(=O)O | 0.958 | 0.947
CCCCCC/C=C\CCCCCCCC(=O)O | 1.04 | 0.911
C=C1C(=O)O[C@@H]2/C=C(\C)CC/C=C(\C)CC[C@@H]12 | 1.24 | 0.875
O=C1C=C2C=C[C@@H](O)[C@H](O)[C@H]2O1 | 1.07 | 0.996
CCCCCCCCCCCCC(=O)O | 1.1 | 0.878
CNCC(=O)O | 0.813 | 0.849
C[C@@H]1C/C=C/C=C/C=C/C=C/[C@H](O[C@@H]2O[C@H](C)[C@@H](O)[C@H](N)[C@@H]2O)C[C@@H]2O[C@](O)(C[C@@H](O)C[C@H]3O[C@@H]3/C=C/C(=O)O1)C[C@H](O)[C@H]2C(=O)O | 1.03 | 0.933
CO/N=C(\C(=O)N[C@@H]1C(=O)N2C(C(=O)OC(C)OC(C)=O)=C(COC(N)=O)CS[C@H]12)c1ccco1 (some centres undefined) | 1.16 | 1.04

The listing continues.

SMILES	cell viability [1]	cell viability [2]
CCCCCC=CCC=CCCCCCCCC(=O)OC(COC(=O)CCCCCCCCCCCCCCC)COP(=O)([O-])OCC[N+](C)(C)C (centres undefined)	0.879	0.981
O=C(O)C(O)CO (centres undefined)	1.01	0.968
C=C(C)[C@@H]1CC[C@]2(C=O)CC[C@]3(C)[C@H](CC[C@@H]4[C@@]5(C)CC[C@H](O)C(C)(C)[C@@H]5CC[C@]43C)[C@@H]12	1.05	1.02
O=C(O)C1CCCCN1 (centres undefined)	1.07 and 0.996	0.868 and 0.899
C1CNCCNCCNCCN1	0.77	0.773
C=CC1=C(C(=O)O)N2C(=O)[C@@H](NC(=O)/C(=N\O)c3csc(N)n3)[C@H]2SC1	1.15	0.919
O=c1c(-c2ccc(O[C@@H]3O[C@H](CO)[C@@H](O)[C@H](O)[C@H]3O)cc2)coc2cc(O)cc(O)c12	0.959	0.946
CC[C@@H]1C(=O)OC[C@@H]1Cc1cncn1C	1.03	0.898
C[C@@H]1O[C@@H](OC[C@H]2O[C@@H](OCCc3ccc(O)c(O)c3)[C@H](O)[C@@H](O)[C@@H]2OC(=O)/C=C/c2ccc(O)c(O)c2)[C@H](O)[C@H](O)[C@H]1O	1.09	0.762
CC(C)C(C)C(O)C(O)C(C)C1CCC2C3COC(=O)C4CC(O)C(O)CC4(C)C3CCC12C (centres undefined)	1.41	0.826
C[C@H]1O[C@@H](O[C@H]2CC[C@@]3(C)[C@@H](CC[C@]4(C)[C@@H]3C=C[C@]35OC[C@@]6(CCC(C)(C)C[C@H]63)[C@H](O)C[C@]54C)[C@]2(C)CO)[C@H](O)[C@@H](O[C@@H]2O[C@H](CO)[C@@H](O)[C@H](O)[C@H]2O)[C@H]1O	0.304	0.538
COc1cc(O)c(CC=C(C)C)c(O)c1C(=O)/C=C/c1ccc(O)cc1	1.09	0.92
C=CCCCCCCCCC(=O)O	0.907	0.92
O=C(O[C@@H]1Cc2c(O)cc(O)cc2O[C@@H]1c1ccc(O)c(O)c1)c1cc(O)c(O)c(O)c1	0.879	0.913
CCCCCCCC(=O)O	0.996	0.956
CCN(CC)CCOC(=O)c1ccc(N)cc1	0.72	1.02
CC(=O)O[C@H]1C[C@@]2(C)[C@@H](C[C@@H](O)[C@H]3[C@@]4(C)CC[C@@H](O)[C@@H](C)[C@@H]4CC[C@@]32C)/C1=C(\CCC=C(C)C)C(=O)O	1.04	0.907
COc1ccc(-c2cc(=O)c3c(O)c(OC)c(O)c(OC)c3o2)cc1	1.29	0.839
CC(C)(CO)[C@@H](O)C(=O)NCCC(=O)NCCSSCCNC(=O)CCNC(=O)[C@H](O)C(C)(C)CO	1.02	1.09
O=C1Nc2ccccc2/C1=C1/Nc2ccccc2C1=O	0.801	0.853
CCN(CC)c1ccc(/C=N/NC(=O)c2ccc(O)cc2)cc1	0.857	0.8
C/C=C/c1ccc(OC)cc1	0.979	1.01
CCN(CC)CC#CCOC(=O)C(O)(c1ccccc1)C1CCCCC1 (centres undefined)	1.07	0.994
COC1=C(OC)C(=O)C(C/C=C(\C)CC/C=C(\C)CC/C=C(\C)CC/C=C(\C)CC/C=C(\C)CC/C=C(\C)CC/C=C(\C)CC/C=C(\C)CC/C=C(\C)CCC=C(C)C)=C(C)C1=O	0.763	1.13
Nc1ncnc2c1ncn2[C@H]1C[C@H](O)[C@@H](CO)O1	0.839	0.999
O=C1O[C@H](CO)[C@@H](O)[C@H](O)[C@H]1O	0.876	0.966

SMILES	cell viability [1]	cell viability [2]
O=Cc1ccc(O)cc1	1.18	0.929
C[C@H](N)C(=O)N[C@@H](CCC(N)=O)C(=O)O	0.784	0.915
O=NO	1.35	1.03
COc1cc2c(=O)c(-c3ccc(O)cc3)coc2cc1O	1.13	0.848
COc1cc(C(C)=O)cc(OC)c1O	0.9	1.07
CCCCCCCCCCCO	0.839	0.836
CNC(CC(=O)O)C(=O)O (centres undefined)	1.22	0.907
CC(C)=CCC[C@](C)(O[C@@H]1O[C@H](CO)[C@@H](O)[C@H](O)[C@H]1O)[C@H]1CC[C@]2(C)[C@@H]1[C@H](O)C[C@@H]1[C@@]3(C)CC[C@H](O[C@@H]4O[C@H](CO)[C@@H](O)[C@H](O)[C@H]4O[C@@H]4O[C@H](CO)[C@@H](O)[C@H](O)[C@H]4O)C(C)(C)[C@@H]3CC[C@]12C	0.997	0.988
CCOC(=O)c1cc(O)c(O)c(O)c1	1.22	0.807
O[C@H]1[C@H](O)[C@@H](O)[C@H](O)[C@@H](O)[C@@H]1O	0.968	0.92
CSCC[C@H](N)C(=O)O	0.89 and 0.985	0.956 and 1.03
COc1c(O)cc2oc3cc(O)c(CC=C(C)C)c(O)c3c(=O)c2c1CC=C(C)C	1.07	0.859
CC(=O)[C@H]1CC[C@H]2[C@@H]3CC=C4C[C@@H](O)CC[C@]4(C)[C@H]3CC[C@]12C	1.1	0.966
CC(S)C(=O)NCC(=O)O (centres undefined)	1.06	1.05
COC(=O)c1c2c(c3ccccc3c1O)OC(C)(C)C=C2	1.24	0.865
COc1ccc([C@@H]2OC[C@H]3[C@@H]2CO[C@@H]3c2ccc3c(c2)OCO3)cc1OC	1.14	0.854
O=C(O)c1cccc(Oc2ccccc2)c1	0.985	1.04
O=C1c2c(O)cc(O)cc2OC(c2ccc(O)c(O)c2)C1O (centres undefined)	1.37	1.47
COC(=O)CCC(=O)CN	0.915	0.933
CNC(=O)c1cccnc1	0.851	1.01
C=C[C@]1(C)C[C@@H](OC(=O)CSC(C)(C)CNC(=O)[C@H](N)C(C)C)[C@]2(C)[C@H](C)CC[C@]3(CCC(=O)[C@H]32)[C@@H](C)[C@@H]1O	1.23	1.08
O[C@H]1[C@H]2c3cc4c(cc3CN3CCC(=C[C@@H]1O)[C@H]23)OCO4	0.51	0.538
N=C(N)NCCCC[C@@H]1NC(=O)CCSSC[C@@H](C(N)=O)NC(=O)[C@@H]2CCCN2C(=O)[C@H](Cc2c[nH]c3ccccc23)NC(=O)[C@H](CC(=O)O)NC(=O)CNC1=O	0.741	0.868
NCCc1ccc(O)c(O)c1	1.09	0.943
COc1ccc(C=CC(=O)O)cc1O	1.59	0.921
